Values from PubChem BioAssay AID1259424 (University of Nebraska Medical Center, 2018).
This is an unselected part of about 14,000 reagents tested. 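Higher correlation or smaller distance means closer resemblance to KSR1 loss; control wells, including KSR1 knockdowns, recur on many plates.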 Not all columns of the deposit are shown. Not given: the time to read-out.

Screen: 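Find knockdowns that reproduce the expression shifts seen after KSR1 loss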 (primary screen)
System: human HCT116 colon cancer cells
Reagent: siRNA pool against human genes, 50 nM
Read-out: 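Log2 levels of six mRNAs (branched-DNA multiplex), adjusted by two reference genes and the non-targeting median, then scored against the average KSR1 knockdown pattern as Pearson r and euclidean distance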
Scale: mean correlation with KSR1 profile and KSR1 correlation: higher = expression change more like KSR1 knockdown; mean distance from KSR1 profile: higher = expression change less like KSR1 knockdown

no.	gene	PubChem SID	mean correlation with KSR1 profile	mean distance from KSR1 profile	KSR1 correlation, replicate 1	KSR1 correlation, replicate 2
1	PRKDC	SID363997660	0.177	5.26	0.404	0.418
2	HIF3A	SID364002448	-0.0332	2.6	0.0607	0.0233
3	MARCHF5	SID364000558	0.45	1.43	0.365	0.312
4	MNX1	SID363996416	0.378	2.46	0.506	0.574
5	GPR37L1	SID363995724	0.446	1.84	0.358	0.494
6	ERMP1	SID364005386	0.636	1.37	0.646	0.759
7	RNF32	SID364003510	0.566	0.897	0.435	0.345
8	MMP8	SID363993602	0.11	1.6	0.145	0.278
9	LRP12	SID363998516	-0.0561	2.41	0.0432	0.0418
10	HIF1A	SID363992787	0.645	0.847	0.575	0.413
11	DCLK3	SID364005195	0.0439	1.93	0.263	0.079
12	RDH14	SID364001893	-0.274	2.08	-0.349	-0.248
13	CSH1	SID363992598	-0.358	1.38	-0.0171	-0.308
14	STIM1	SID363994295	-0.251	2.31	-0.0347	-0.319
15	CLTB	SID363993049	0.058	3.53	0.179	-0.0257
16	RAC1	SID364001222	0.687	2.28	0.707	0.684
17	TNKS	SID363994814	-0.489	2.39	-0.532	-0.613
18	NXPH2	SID364005455	-0.907	3.97	-0.922	-0.814
19	CD1C	SID363992984	-0.0815	2.84	-0.0848	-0.225
20	SLC6A8	SID363996523	0.224	0.912	0.506	-0.0476
21	KIF20A	SID363996618	-0.141	2.02	-0.178	-0.101
22	PLIN3	SID363996694	-0.273	2.93	0.00487	-0.178
23	GFRA2	SID363992753	0.0995	2.74	0.0832	0.236
24	DNAL4	SID363996625	-0.248	3.64	-0.402	0.107
25	COQ4	SID363999813	-0.322	2.34	-0.273	-0.322
26	GNAQ	SID363993279	0.673	2.2	0.58	0.678
27	TIAM1	SID363994374	-0.196	2.24	-0.00287	-0.167
28	CDC50A	SID364000911	-0.0635	1.3	-0.289	-0.56
29	RASAL3	SID364005040	0.13	1.45	-0.306	-0.0202
30	FLACC1	SID364004601	0.326	2.19	0.227	0.187
31	MRGBP	SID364000931	-0.0947	2.45	-0.184	-0.223
32	NR1H3	SID363996583	0.52	0.855	0.515	0.363
33	THSD7B	SID364005185	-0.317	1.84	-0.457	-0.383
34	TMEM141	SID364004274	0.406	2.99	0.315	0.125
35	STX12	SID364004896	-0.394	1.4	0.0194	-0.478
36	GCSH	SID363995462	-0.157	2.07	-0.0021	-0.413
37	AP1B1	SID363992420	-0.276	4.47	-0.419	-0.17
38	BAK1	SID363992478	0.0666	2.65	-0.00566	-0.0269
39	AOPEP	SID364004201	0.203	2.79	0.393	0.57
40	VPS13D	SID363999453	-0.338	1.92	-0.328	-0.547
41	CLUL1	SID363998830	0.471	1.59	0.106	0.442
42	HOXA2	SID363997507	0.1	2.57	0.324	-0.109
43	AURKC	SID363994298	0.46	2.16	0.447	0.591
44	PRSS33	SID364004749	0.544	1.46	0.706	0.531
45	MAF1	SID364003866	0.912	1.26	0.881	0.851
46	RCBTB1	SID364000861	-0.445	3.1	-0.282	-0.562
47	HNRNPR	SID363996701	0.0447	1.52	0.157	-0.0527
48	TFEB	SID363997863	-0.601	2.04	-0.424	-0.376
49	FAU	SID363993209	-0.0404	1.53	0.0153	0.0306
50	SLC6A14	SID363997925	0.089	2.01	-0.0354	-0.0357
